PubChem BioAssay AID504808 – Drosophila RNAi Screening Center – 2011

Aim: 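Fly genes required to hold E2F transcription in check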 (primary screen)
System: Drosophila S2 cells
Reagent: long dsRNA against Drosophila genes
Measurement: 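Firefly luciferase driven by E2F sites, normalised to Renilla luciferase on the same minimal promoter, measured by plate reader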
Scale: E2F firefly: higher = more E2F reporter activity; Renilla normaliser: higher = more normaliser reporter signal
Rule for the call: 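a knock-down counted as active when the firefly/Renilla E2F signal rose above 50%, a threshold chosen arbitrarily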
The deposit covers about 21,000 reagents; shown is a random part of those that have a named target and a result. Over the whole deposit, 18 (0.084%) got an active call. 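Raw counts without plate normalisation, one of two replicates; the ratio scores behind the calls were not deposited.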 Names joined by + are all predicted targets of the reagent. Not stated in the record: the amount of reagent, the time to read-out.

target,PubChem SID,"E2F firefly, rep 1","Renilla normaliser, rep 1",outcome
toy (GeneID 43833),SID104197014,2034,996,inactive
uzip (GeneID 38002),SID104184514,83827,3613,inactive
CG1888 (GeneID 35979),SID104186589,1.60e5,5967,inactive
Ugt303B1 (GeneID 42775),SID104194933,1.05e5,4933,inactive
Hsp110 (GeneID 39557),SID104190978,77493,3255,inactive
Dredd (GeneID 31011),SID104198253,1750,936,inactive
RpL34a (GeneID 43169),SID104195756,97128,5832,inactive
Scp1 (GeneID 3355102),SID104200591,78972,2819,inactive
Scp1 (GeneID 3355102),SID104200595,80767,3452,inactive
Scp1 (GeneID 3355102),SID104200598,1.38e5,6653,inactive
HGTX (GeneID 53446),SID104189111,1.43e5,3786,inactive
HGTX (GeneID 53446),SID104190973,1.82e5,8793,inactive
Hacl (GeneID 37285),SID104185853,79560,3256,inactive
Lipt1 (GeneID 36795),SID104185392,1.60e5,5287,inactive
Lipt1 (GeneID 36795),SID104186975,67722,3537,inactive
Polr2G (GeneID 261631),SID104195860,55966,199,inactive
Tpc1 (GeneID 41316),SID104195406,1.36e5,6140,inactive
Tpc1 (GeneID 41316),SID104195866,73348,3776,inactive
Coq6 (GeneID 33777),SID104182832,76457,3535,inactive
Ir68b (GeneID 39378),SID104190043,1.36e5,7716,inactive
sgll (GeneID 40925),SID104195234,1.44e5,6976,inactive
CG14440 (GeneID 31610),SID104197725,84176,4432,inactive
CG42327 (GeneID 41401),SID104194728,1.15e5,6493,inactive
CG42327 (GeneID 41401),SID104194729,1.35e5,6319,inactive
Trf (GeneID 34102),SID104183254,1.46e5,6597,inactive
ArgRS (GeneID 32539),SID104199930,2.23e5,6719,inactive
jdp (GeneID 43630),SID104196767,1859,968,inactive
eIF2Bgamma (GeneID 36722),SID104186892,70773,3132,inactive
MESK2 + CG10494,SID104184051,1.01e5,4049,inactive
Hsc70-2 (GeneID 41609),SID104196502,90120,4653,inactive
VhaM9.7-d (GeneID 42041),SID104194820,1.03e5,5651,inactive
CG15880 (GeneID 33257),SID104180266,1.70e5,6228,inactive
Hsepi (GeneID 35569),SID104184778,97725,4553,inactive
CG10098 (GeneID 40851),SID104192301,64220,2960,inactive
CG15201 (GeneID 32053),SID104199440,1.41e5,6366,inactive
CG1271 (GeneID 38364),SID104188082,74646,3566,inactive
CG17776 (GeneID 50373),SID104197928,1.46e5,6331,inactive
Oseg5 (GeneID 35349),SID104183001,94318,4214,inactive
Zasp66 (GeneID 38988),SID104188724,1.32e5,4982,inactive
Zasp66 (GeneID 38988),SID104190423,76883,3939,inactive
Zasp66 (GeneID 38988),SID104190424,1.02e5,3428,inactive
CG15279 (GeneID 34863),SID104181727,93874,3929,inactive
Galphaq (GeneID 36384),SID104187224,3255,222,inactive
CG18180 (GeneID 39125),SID104190096,82502,3846,inactive
CG14695 (GeneID 41314),SID104194710,1.35e5,6106,inactive
RalGPS (GeneID 36881),SID104186733,62158,3036,inactive
Sce (GeneID 43327),SID104196617,1285,944,inactive
MED25 (GeneID 42385),SID104194275,49355,3316,inactive
veg (retired record) (GeneID 44057),SID104187506,1.44e5,5484,inactive
EMC3 (GeneID 34479),SID104182781,1.51e5,4855,inactive
shd (GeneID 39592),SID104190921,1.64e5,8521,inactive
Kal1 (GeneID 42865),SID104195775,71281,4163,inactive
daw (GeneID 33474),SID104180271,83706,3514,inactive
CG4962 (GeneID 39793),SID104190256,1.52e5,6226,inactive
Mtch (GeneID 38026),SID104188471,67676,2929,inactive
Or94b (GeneID 42712),SID104196565,1.07e5,5712,inactive
CG16853 (GeneID 34771),SID104181669,1.10e5,4456,inactive
CG30447 (GeneID 246621),SID104185612,1.58e5,5679,inactive
Kdm2 (GeneID 41090),SID104194078,65490,3047,inactive
CG12992 (GeneID 32733),SID104199304,1.45e5,6042,inactive
glob1 (GeneID 41930),SID104196751,78546,3735,inactive
CG8736 (GeneID 35841),SID104187047,1.63e5,5633,inactive
CG14292 (GeneID 42264),SID104194564,1.35e5,6810,inactive
CG6184 (GeneID 42345),SID104195778,1.34e5,8120,inactive
png (GeneID 31084),SID104198374,77422,4535,inactive
CG13220 (GeneID 36200),SID104186134,90265,4335,inactive
Nil (GeneID 43185),SID104195745,98276,5175,inactive
CG13297 (GeneID 38711),SID104189763,1.03e5,4094,inactive
MsR2 + CG13802 (retired record),SID104188128,1.05e5,4296,inactive
MsR2 + CG13802 (retired record),SID104188129,1.12e5,4647,inactive
CG33093 (GeneID 42654),SID104195567,50586,3168,inactive
CG2818 (GeneID 33597),SID104180332,87406,3808,inactive
CG17597 (GeneID 35140),SID104182422,77349,3187,inactive
CG5715 (GeneID 42895),SID104195652,1.02e5,7096,inactive
CG16879 (retired record) (GeneID 34827),SID104181710,97864,4428,inactive
CG4789 (GeneID 32668),SID104199710,2.37e5,6213,inactive
sev (GeneID 32039),SID104200164,1.29e5,6468,inactive
moi + Tgs1,SID104196163,1.52e5,7150,inactive
dgrn (GeneID 40725),SID104191946,70263,3217,inactive
lilli (GeneID 33496),SID104180500,77102,4484,inactive
Peritrophin-15b (GeneID 50432),SID104182058,1.47e5,5514,inactive
Rim (GeneID 42150),SID104196016,1.27e5,7126,inactive
Rim (GeneID 42150),SID104196017,70625,3894,inactive
Rim (GeneID 42150),SID104196018,58579,3025,inactive
Rim (GeneID 42150),SID104196019,1.56e5,7657,inactive
conv (GeneID 36588),SID104187005,1.06e5,4122,inactive
Coq8 (GeneID 32239),SID104199692,1.34e5,6972,inactive
CG17637 (GeneID 40275),SID104191532,1.53e5,7916,inactive
shf (GeneID 31617),SID104198075,1.31e5,6160,inactive
CG31140 (GeneID 42836),SID104193441,86899,2477,inactive
CG31140 (GeneID 42836),SID104194395,75160,3215,inactive
CG31140 (GeneID 42836),SID104195696,1.24e5,6257,inactive
CG7409 (GeneID 38870),SID104190634,86720,3536,inactive
4E-T (GeneID 43836),SID104196993,1680,988,inactive
4E-T (GeneID 43836),SID104197000,1.04e5,5866,inactive
Aven (GeneID 32215),SID104199485,1.35e5,6442,inactive
CG9444 (GeneID 41175),SID104196285,1.34e5,6046,inactive
Cyp6v1 (GeneID 33056),SID104200357,1.32e5,7426,inactive
CG10357 (GeneID 38435),SID104187947,91538,4336,inactive
CG4098 (GeneID 39854),SID104190191,1.77e5,9085,inactive
CG15506 (GeneID 43498),SID104194839,1.32e5,6281,inactive
CG31686 (retired record) (GeneID 318885),SID104179894,1.26e5,5249,inactive
CG33255 (retired record) + hpRNA:CR32205 + hpRNA:CR32207,SID104189409,87413,4037,inactive
S-Lap1 (GeneID 38986),SID104190419,68230,3575,inactive
CG2003 (GeneID 43761),SID104195203,1.26e5,5508,inactive
CG9300 (GeneID 40128),SID104190856,72631,3173,inactive
dsb (GeneID 38252),SID104188199,95306,4146,inactive
dsb (GeneID 38252),SID104188334,88391,3747,inactive

Already shown: an excerpt of the list.
target,PubChem SID,"E2F firefly, rep 1","Renilla normaliser, rep 1",outcome
Kdm2 (GeneID 41090),SID104194078,65490,3047,inactive
CG12992 (GeneID 32733),SID104199304,1.45e5,6042,inactive
glob1 (GeneID 41930),SID104196751,78546,3735,inactive
CG8736 (GeneID 35841),SID104187047,1.63e5,5633,inactive
CG14292 (GeneID 42264),SID104194564,1.35e5,6810,inactive
CG6184 (GeneID 42345),SID104195778,1.34e5,8120,inactive
png (GeneID 31084),SID104198374,77422,4535,inactive
CG13220 (GeneID 36200),SID104186134,90265,4335,inactive
Nil (GeneID 43185),SID104195745,98276,5175,inactive
CG13297 (GeneID 38711),SID104189763,1.03e5,4094,inactive
MsR2 + CG13802 (retired record),SID104188128,1.05e5,4296,inactive
MsR2 + CG13802 (retired record),SID104188129,1.12e5,4647,inactive
CG33093 (GeneID 42654),SID104195567,50586,3168,inactive
CG2818 (GeneID 33597),SID104180332,87406,3808,inactive
CG17597 (GeneID 35140),SID104182422,77349,3187,inactive
CG5715 (GeneID 42895),SID104195652,1.02e5,7096,inactive
